In US11504387B2, “Bioconversion of oleuropein” (SOCIETE DES PRODUITS NESTLE S.A., priority 2017, dated 2022):
For at least one compound, name, drawing or mass did not settle the structure.

Test system: chondrocytes
Assay: in vitro data on chondrocytes metabolism
Assay type: cell-based

OCCc1ccc(O)c(O)c1 [hydroxytyrosol, 3,4-dihydroxyphenylethanol]
effect on chondrocytes metabolism: significant positive results
efficacy compared to oleuropein (chondrocytes metabolism): higher efficacy compared to oleuropein
